Results taken from the supplement of paper PMC12819154, “High-throughput peptide-centric local stability assay extends protein–ligand identification to membrane proteins, tissues and bacteria” (Nature Structural & Molecular Biology, 2025).
The other results are listed elsewhere or left out. Most entries show no effect beyond the scatter of the controls.

Protein sequences, listed by entry. Tags and fused reporters are not part of them. Lines headed by an entry give the natural chain unless they say otherwise; changes in a name come on top.
UniProt P77334: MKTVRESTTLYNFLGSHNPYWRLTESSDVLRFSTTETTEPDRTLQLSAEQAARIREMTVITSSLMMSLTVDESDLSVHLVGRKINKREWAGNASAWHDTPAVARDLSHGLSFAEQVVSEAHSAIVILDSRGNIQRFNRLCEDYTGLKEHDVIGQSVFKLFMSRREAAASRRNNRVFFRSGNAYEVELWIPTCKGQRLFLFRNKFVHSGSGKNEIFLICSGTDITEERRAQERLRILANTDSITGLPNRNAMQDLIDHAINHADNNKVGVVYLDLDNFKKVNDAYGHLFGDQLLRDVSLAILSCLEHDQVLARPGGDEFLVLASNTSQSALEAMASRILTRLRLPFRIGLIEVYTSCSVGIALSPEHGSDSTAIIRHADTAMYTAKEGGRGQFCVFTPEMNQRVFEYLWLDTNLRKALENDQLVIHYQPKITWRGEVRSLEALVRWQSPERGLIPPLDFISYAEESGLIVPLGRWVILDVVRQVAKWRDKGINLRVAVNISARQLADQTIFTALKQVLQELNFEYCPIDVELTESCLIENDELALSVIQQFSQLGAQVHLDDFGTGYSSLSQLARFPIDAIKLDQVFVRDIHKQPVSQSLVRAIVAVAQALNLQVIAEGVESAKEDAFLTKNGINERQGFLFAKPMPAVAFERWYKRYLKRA
UniProt P76639: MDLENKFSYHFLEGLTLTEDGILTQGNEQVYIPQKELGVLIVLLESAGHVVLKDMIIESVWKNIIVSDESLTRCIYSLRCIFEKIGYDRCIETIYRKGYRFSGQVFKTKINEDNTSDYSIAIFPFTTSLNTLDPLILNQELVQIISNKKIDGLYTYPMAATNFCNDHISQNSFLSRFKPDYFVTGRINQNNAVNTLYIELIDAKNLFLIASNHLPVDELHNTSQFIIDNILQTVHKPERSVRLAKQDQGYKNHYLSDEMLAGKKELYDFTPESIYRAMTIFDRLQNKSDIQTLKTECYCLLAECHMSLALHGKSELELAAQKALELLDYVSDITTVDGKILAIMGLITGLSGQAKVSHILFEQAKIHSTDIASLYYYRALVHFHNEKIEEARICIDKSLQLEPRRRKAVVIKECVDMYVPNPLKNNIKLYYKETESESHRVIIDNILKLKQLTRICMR
UniProt P77395: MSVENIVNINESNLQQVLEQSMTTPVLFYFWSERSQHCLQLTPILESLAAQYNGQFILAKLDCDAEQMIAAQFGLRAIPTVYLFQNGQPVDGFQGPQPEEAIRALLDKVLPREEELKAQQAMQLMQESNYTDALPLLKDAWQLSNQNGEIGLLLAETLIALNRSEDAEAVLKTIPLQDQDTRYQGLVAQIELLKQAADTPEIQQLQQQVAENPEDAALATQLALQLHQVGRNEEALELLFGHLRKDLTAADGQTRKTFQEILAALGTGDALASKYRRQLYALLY
UniProt P76213: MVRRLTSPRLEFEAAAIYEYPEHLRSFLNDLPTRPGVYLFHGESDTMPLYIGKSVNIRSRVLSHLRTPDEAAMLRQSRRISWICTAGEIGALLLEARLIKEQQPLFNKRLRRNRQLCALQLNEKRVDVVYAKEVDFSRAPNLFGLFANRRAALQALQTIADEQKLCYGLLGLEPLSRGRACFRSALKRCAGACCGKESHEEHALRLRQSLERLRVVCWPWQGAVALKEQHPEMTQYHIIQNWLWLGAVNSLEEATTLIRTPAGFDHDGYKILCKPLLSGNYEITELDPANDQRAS
UniProt P77434: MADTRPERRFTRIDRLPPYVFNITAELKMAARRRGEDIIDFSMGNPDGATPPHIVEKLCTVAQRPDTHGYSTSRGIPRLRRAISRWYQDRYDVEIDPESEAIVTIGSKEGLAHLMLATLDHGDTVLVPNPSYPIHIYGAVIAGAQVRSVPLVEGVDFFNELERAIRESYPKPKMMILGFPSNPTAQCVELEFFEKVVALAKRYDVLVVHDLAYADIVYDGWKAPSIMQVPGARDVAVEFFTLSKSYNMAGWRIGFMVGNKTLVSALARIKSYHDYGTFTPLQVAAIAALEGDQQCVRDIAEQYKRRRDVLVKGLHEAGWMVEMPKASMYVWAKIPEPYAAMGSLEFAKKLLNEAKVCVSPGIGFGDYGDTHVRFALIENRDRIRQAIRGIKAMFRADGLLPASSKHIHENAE
UniProt P76076: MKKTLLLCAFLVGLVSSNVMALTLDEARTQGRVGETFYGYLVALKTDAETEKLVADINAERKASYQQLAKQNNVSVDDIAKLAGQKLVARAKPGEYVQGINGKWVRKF

The targets below were run with CC1(C)S[C@@H]2[C@H](NC(=O)[C@H](N)c3ccccc3)C(=O)N2[C@H]1C(=O)O [ampicillin] (assay: log2 fold change of tryptic peptide abundance, ligand vs vehicle (limited proteolysis) (log2 ratio); higher = more trypsin-susceptible (destabilized)). Conditions: ligand concentration: 10 uM; sample: E. coli crude lysate.

Question: How did the log2 fold change turn out when “UniProt P77334 (peptide sequence: TLQLSAEQAAR, peptide start residue: 43)” was run?
Answer: -0.942

Question: For “UniProt P76639 (peptide sequence: LAKQDQGYK, peptide start residue: 243)”, which log2 fold change is on record?
Answer: -0.145

Question: With “UniProt P77395 (peptide sequence: KTFQEILAALGTGDALASK, peptide start residue: 256)” as the target, how does the log2 fold change read?
Answer: 0.68

Question: Which log2 fold change does the source give for “UniProt P76213 (peptide sequence: LEFEAAAIYEYPEHLR, peptide start residue: 10)” here?
Answer: 0.359

Question: For “UniProt P77434 (peptide sequence: DIAEQYKR, peptide start residue: 298)”, which log2 fold change is on record?
Answer: 0.284

Question: How did the log2 fold change turn out when “UniProt P76076 (peptide sequence: LVADINAER, peptide start residue: 53)” was run?
Answer: 0.296
